Measured values from PMC6002686.

Molecular target: FnrD154A (constitutively active Fnr) (Escherichia coli K12 (from plasmid pPK822)) (UniProt P0A9E5)
Assay: EMSA
Conditions: 50 ug BSA, 261 bp non-specific competitor DNA, 37 C, dose-dependent; recombinant protein; residues 1-250; protein details: C-terminal 6xHis (pBAD-TOPO); label: none (GelRed stain); probe letters rebuilt from the primers and the genome

TCTAAGAAAACCTCATCCCGGGATTTTCAGGCAACCCTCCCGGTGATGCCAAAGAGAAAAGTGTAGTTCGTTGACAATAAATTTACATTTCTACAACTTAAAAGGGCCATTTTTGCTAAAGAAGCGAGTCAGCCCGTTTAACCTTTATCCAGGCTTGCCGACAGTAGAATTGAGATGGCTCCGCTACTTCACCCGGTGACGGCTGATTACGTTATGCCTTATCTCCTGATGACGGCTGCCAGATCACAATGCTTTGGTAAACCGGAAATGACTTTGCTTGTAACCTTCGCGAAGATAAAAACGGTGTGCATCGCGGCGTTTAATATTTGTGGAAAGCTCCGTTAGCTCGGCGCCCGCCTGACGTGCTTCTTCTTCTGCCCAGGCCAGAAGCTGACTGCCAATTTTTTGTCCCCGCATCGGCGGTAATACCACCAGCTCCTGAATTTCGCCAATCCAGTTGGCATGATGGAGATGAAACT (double strand) [complete lpxO promoter region, 480 bp]
binding result: binds

For at least one entry, the source does not settle the construct or the ends of the probe.
